The test can be described thus: qHTS Assay to Find Inhibitors of Chronic Active B-Cell Receptor Signaling. The conditions noted are these: ABC-DLBCL IkBa-CBG/CBR reporter, luminescence ratio (green luciferase fused to IkBa over red control in TMD8 lymphoma cells), 4 h. An outline of the steps: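 Concentration-response series (up to 46 uM) were applied to TMD8 dual-reporter cells for 4 h at 37C with doxycycline. Green/red ratio, after filter-overlap correction, defined %Activity; red signal alone was normalised to basal cells and zero luminescence.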

[1] abbreviates: measured here: CBR red luminescence, cell number.
Where [2] appears, read: measured here: IkBa-CBG green luminescence.

The other results are listed elsewhere or left out. Further columns of the screen follow, without active or inactive calls. Most of these compounds were active or inconclusive in the main read-out, so they are no random draw. Potencies come from curve fits of mixed quality, noted in brackets.

The term AC50 denotes the concentration giving half of the maximal activity seen. In the case of `COc1cc(NC(=O)N2CCOCC2)cc(OC)c1`, the AC50 under setting [1] was 29.1 µM [rising, single point]. Turning to `CCOC(=O)/C=C/C(=O)OCC(=O)Nc1ccc(OC)c(Cl)c1`, the AC50 runs as follows: under setting [1], 29.1 µM [rising, single point]; under setting [2], 32.6 µM [falling, partial curve, poor fit]. Regarding `Fc1ccc(CSc2nnc(-c3ccco3)o2)cc1`, the AC50 under setting [1] is 2.51 µM [rising, partial curve, poor fit]. Turning to `C=CC[C@H](CC(=O)N(CCO)Cc1ccccc1)C(=O)N[C@H](COC(=O)[C@@H](CC=C)Cc1ccc(F)cc1)Cc1ccccc1`, under setting [1], the AC50 is 29.1 µM [falling, single point].

On to `CC1(C)CC(=O)C(C=Nc2ccc(N)cc2)=C(O)C1`, for which, under setting [1], the AC50 was 0.398 µM [falling, full curve, poor fit].

With `CCCCCCc1nc2ccccc2c(=O)n1N`, the AC50 under setting [1] is 10 µM [rising, partial curve, poor fit]. Still for that read-out and setting: in the case of `Cc1ccc(C(=O)Nc2nn(C)c3cccc(F)c23)cc1` it was 1 µM [falling, full curve, poor fit]; in that of `CC(=O)c1cccc(NC(=O)COC(=O)c2cccc(N3C(=O)c4ccccc4C3=O)c2)c1`, 23.1 µM [falling, single point]. On to `C=CCN1C(=O)/C(=C\c2ccc(OC(=O)c3ccco3)c(OC)c2)SC1=S`, for which the AC50 under setting [1] is 6.31 µM [rising, partial curve]. With `O=C(NN=C1CCCCCCCCCCC1)c1cccnc1`, the AC50 under setting [1] was 12.6 µM [falling, partial curve]. For the compound `O=C(CSc1ncnc2scc(-c3ccccc3)c12)NC1CCS(=O)(=O)C1` (centres undefined), the AC50 was 10 µM [rising, partial curve] under setting [1] and 11.2 µM [falling, partial curve, poor fit] under setting [2]. For the compound `O=C(CCN1CCN(c2ccccc2)CC1)c1ccc(Cl)cc1`, under setting [1], the AC50 is 35.5 µM [falling, single point]. Same read-out and setting: in the case of `COc1ccccc1NC(=O)Cc1noc(CSc2n[nH]c(N)n2)n1` it was 7.94 µM [rising, partial curve, poor fit]. Same read-out and setting: in the case of `CCOC(=O)c1[nH]c(C)c(C)c1C` it was 35.5 µM [rising, single point]; in that of `COc1cc(C(=O)N/N=C/c2cn(Cc3ccccc3)c3ccccc23)ccc1O`, 2.51 µM [falling, partial curve, poor fit]. The same measure, in the same setting: the figure for `Cn1nnnc1Sc1ncnc2scc(-c3cccs3)c12` is 9.2 µM [falling, partial curve, poor fit]. For the compound `C=CCn1c(Cc2cccs2)nnc1SCC(=O)Nc1ccc(C(=O)OCC)cc1`, the AC50 under setting [1] is 22.4 µM [falling, single point]. On the same count and under the same terms, the figure for `NC(=O)c1oc2ccccc2c1NC(=O)c1ccccc1` is 1.46 µM [falling, full curve]; for `C/C(=N\NC(=O)C(O)c1ccccc1)c1ccc(Cl)cc1` (centres undefined) it is 10 µM [falling, partial curve, poor fit]. The same measure, in the same setting: in the case of `O=C(O)CCN(CC(=O)c1ccc(Cl)cc1)S(=O)(=O)c1ccc([N+](=O)[O-])cc1` it was 18.4 µM [falling, single point]. In the case of `COc1ccc(CNC(=O)OCCN2CCN(S(=O)(=O)c3ccc(C)cc3)CCC2=O)cc1`, the AC50 under setting [1] is 3.66 µM [rising, partial curve] and the AC50 under setting [2] was 5.17 µM [falling, partial curve, poor fit].

On to `CCCC(=O)Nc1ccc2c(c1)c1ccccc1n2CC`, for which the AC50 under setting [1] is 32.6 µM [rising, partial curve, poor fit]. `CCc1ccc(C(=O)Nc2cccc(-c3nn[nH]n3)c2)s1`: the AC50 under setting [1] was 35.5 µM [falling, single point]. The same measure, in the same setting: the figure for `NNC(=O)c1ccc(COc2cccc3ccccc23)cc1` is 2.59 µM [falling, partial curve, poor fit]; for `CC(=O)N(c1ccc(C)cc1)c1nc(C)cc(C)c1C#N` it is 1.26 µM [falling, partial curve, poor fit].

For `CCc1sc(C(=O)Nc2cccc(C(C)=O)c2)cc1C`, the AC50 under setting [1] is 1.64 µM [rising, full curve]. For the compound `CC(O)CN(Cc1cccc(Cl)c1)CC(C)O` (centres undefined), the half-maximal activity concentration (AC50) under setting [1] was 0.731 µM [rising, full curve, poor fit].

In the case of `COc1ccc(C(=O)Nc2nnc(C3=COCCO3)o2)cc1`, the half-maximal activity concentration (AC50) was 5.62 µM [falling, partial curve] under setting [1] and 5.62 µM [falling, single point] under setting [2]. Consider `COc1ccc(NC(=O)c2cc(-c3ccccc3)oc2C)cc1`, for which, under setting [2], the AC50 was 0.184 µM [rising, full curve, poor fit]. Take `c1ccc(CN2c3ccccc3-c3nc4ccccc4n3C2c2ccccn2)cc1` (centres undefined): the AC50 is 10 µM [falling, partial curve, poor fit] under setting [1] and 20 µM [rising, single point] under setting [2].

As to `Cc1ccc(N2CCN(C(=O)C3CCC(=O)N(Cc4ccc(Cl)cc4)C3)CC2)c(C)c1` (centres undefined), the AC50 under setting [1] is 15.8 µM [falling, single point]. The same measure, in the same setting: the figure for `O=C(Nc1scc(-c2ccccc2)c1C(=O)O)c1ccccc1F` is 11.2 µM [falling, partial curve]; for `Nc1cccc(-c2nnc3n2CCCCC3)c1` it is 6.31 µM [falling, partial curve, poor fit].

For `O=C(COc1ccccc1[N+](=O)[O-])c1ccccc1`, the AC50 under setting [1] was 31.6 µM [falling, partial curve, poor fit]. Still for that read-out and setting: in the case of `COc1cc(C(=O)Nc2nccs2)ccc1OCc1c(C)noc1C` it was 0.631 µM [falling, full curve]; in that of `O=C(CSc1nnc(-c2ccco2)o1)NC(=O)Cc1ccccc1`, 29.1 µM [rising, single point]; in that of `COc1ccc(-c2nnc(SCC(=O)c3ccc(C)o3)o2)cc1`, 8.2 µM [rising, partial curve, poor fit]. Take `COC(=O)c1ccc(N/C=C/C(=O)c2ccc(OC)c(OC)c2)cc1`: the AC50 under setting [1] was 1.26 µM [falling, full curve, poor fit]. `CCc1ccc(-c2cc(C(=O)Nc3ccc(S(=O)(=O)NC(C)=O)cc3)c3ccccc3n2)cc1`: the AC50 under setting [1] is 15.8 µM [falling, partial curve]. Still for that read-out and setting: in the case of `C/C=C/c1ccc(OCC(=O)NCc2ccccc2OC)c(OC)c1` it was 12.6 µM [rising, partial curve]. Same read-out and setting: the figure for `NC(=O)CC(NC(=O)Cc1cccc2ccccc12)c1ccc(NC2CC3CCC2C3)c([N+](=O)[O-])c1` (centres undefined) is 2.82 µM [rising, partial curve]; for `O=C(c1cc2ccccc2oc1=O)N(Cc1ccc(F)cc1)C1CCS(=O)(=O)C1` (centres undefined) it is 11.2 µM [falling, partial curve].

As to `Cc1cc(C(=O)NC(=S)Nc2ccccc2N2CCOCC2)ccc1[N+](=O)[O-]`, the AC50 under setting [1] is 0.366 µM [rising, full curve, poor fit].

For `Cc1cccc2sc(NC(=O)CSc3cn[nH]n3)nc12`, the AC50 under setting [1] is 8.91 µM [falling, partial curve].

With `Cc1nc2ccccc2c(=O)n1/N=C/c1ccc([N+](=O)[O-])o1`, under setting [1], the AC50 is 12.6 µM [falling, single point]. Same read-out and setting: the figure for `O=C(CCCN1C(=O)c2ccccc2C1=O)Nc1nnc(C2CC2)s1` is 7.94 µM [rising, partial curve, poor fit]; for `O=C(Nc1cc(Cl)cc(Cl)c1)N1CCCN(Cc2ccccc2)CC1` it is 1.58 µM [falling, full curve, poor fit]. On the same count and under the same terms, in the case of `Cc1nc(N/N=C\c2ccc3c(c2)OCO3)sc1C` it was 11.2 µM [rising, partial curve]; in that of `COc1ccc(-n2c(C)c(C)c3c(NCCCO)ncnc32)cc1`, 35.5 µM [falling, single point]; in that of `Cc1ccccc1C(=O)NNC(=S)NC(=O)c1cccnc1`, 23.1 µM [falling, single point].

As for `CCCc1cc(=O)n2[nH]c(-c3ccc(C)cc3)cc2n1`, the AC50 under setting [1] was 8.91 µM [falling, partial curve]. Still for that read-out and setting: the figure for `N#Cc1nc(Cc2cccc3ccccc23)oc1NCc1ccc(F)cc1` is 29.1 µM [falling, single point]; for `Fc1ccc(OCc2nc(-c3ccc(Br)o3)no2)c(F)c1` it is 1.78 µM [rising, full curve, poor fit].

Take `CCOC(=O)c1c(-c2ccc(OC)c(OC)c2)csc1NC(=O)C1CCCO1` (centres undefined): the AC50 under setting [1] was 14.1 µM [falling, single point]. On the same count and under the same terms, the figure for `O=C(CSc1nnc(-c2ccccc2O)o1)N1CCCCC1` is 35.5 µM [falling, single point]; for `COc1cc(OC)cc(C(=O)OCC(=O)NCc2ccco2)c1` it is 29.1 µM [rising, single point]; for `CC1=NN(c2nc(-c3ccc(C#N)cc3)cs2)C(=O)C1` it is 12.6 µM [rising, partial curve, poor fit].

In the case of `O=C1C(Cl)=C(Nc2ccccc2O)C(=O)N1c1ccccc1`, the AC50 under setting [1] was 0.112 µM [falling, full curve, poor fit]. Same read-out and setting: the figure for `O=C(/C=C/c1ccccc1)CC(O)(c1ccccc1)C(F)(F)C(F)F` (centres undefined) is 25.9 µM [falling, partial curve, poor fit].

`Cc1cc(C)c(NC(=O)CNC(=O)COC(=O)C2=COCCO2)c(C)c1`: the AC50 under setting [1] was 18.4 µM [rising, single point].

On to `COc1ccccc1CN(C)C(=O)c1sccc1-c1ccccc1`, for which the AC50 under setting [1] is 25.1 µM [falling, single point]. Still for that read-out and setting: in the case of `CCc1ccc(C(=O)CSc2n[nH]c(C)n2)cc1` it was 35.5 µM [falling, single point]. On the same count and under the same terms, in the case of `O=C(CNC(=O)c1ccc([N+](=O)[O-])cc1)c1ccccc1` it was 15.8 µM [falling, partial curve, poor fit]; in that of `CCOc1cc(N2CCOCC2)c(OCC)cc1NC(=O)COC(=O)[C@H](Cc1c[nH]c2ccccc12)NC(C)=O`, 3.26 µM [rising, partial curve, poor fit].

These data come from PubChem BioAssay AID493014 (National Center for Advancing Translational Sciences (NCATS), 2011).
